Laboratory results: article PMC3577914
No constants are given. Whether binding was seen depends on the method and setting. Binding seen in cells or lysates may run through a third protein. Some entries that bind do so weakly or less than the wild type. For part of these data: Tags and fused reporters may be left off the sequences shown.

By UniProt entry, the sequences of proteins in these tests, tags left out.
UniProt O00401: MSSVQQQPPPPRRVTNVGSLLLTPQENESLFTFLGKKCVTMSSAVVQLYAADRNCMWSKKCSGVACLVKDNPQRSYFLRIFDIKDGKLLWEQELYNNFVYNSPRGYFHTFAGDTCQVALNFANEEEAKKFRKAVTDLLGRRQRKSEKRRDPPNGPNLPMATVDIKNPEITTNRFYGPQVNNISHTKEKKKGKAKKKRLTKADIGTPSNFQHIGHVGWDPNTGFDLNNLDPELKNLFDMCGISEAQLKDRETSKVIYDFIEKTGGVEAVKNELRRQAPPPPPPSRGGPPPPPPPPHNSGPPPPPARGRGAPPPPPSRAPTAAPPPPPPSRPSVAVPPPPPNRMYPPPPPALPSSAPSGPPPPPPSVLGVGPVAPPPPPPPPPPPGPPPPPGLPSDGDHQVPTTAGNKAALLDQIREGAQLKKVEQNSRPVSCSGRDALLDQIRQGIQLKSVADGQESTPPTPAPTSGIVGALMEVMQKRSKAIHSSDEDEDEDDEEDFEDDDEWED
UniProt P42768: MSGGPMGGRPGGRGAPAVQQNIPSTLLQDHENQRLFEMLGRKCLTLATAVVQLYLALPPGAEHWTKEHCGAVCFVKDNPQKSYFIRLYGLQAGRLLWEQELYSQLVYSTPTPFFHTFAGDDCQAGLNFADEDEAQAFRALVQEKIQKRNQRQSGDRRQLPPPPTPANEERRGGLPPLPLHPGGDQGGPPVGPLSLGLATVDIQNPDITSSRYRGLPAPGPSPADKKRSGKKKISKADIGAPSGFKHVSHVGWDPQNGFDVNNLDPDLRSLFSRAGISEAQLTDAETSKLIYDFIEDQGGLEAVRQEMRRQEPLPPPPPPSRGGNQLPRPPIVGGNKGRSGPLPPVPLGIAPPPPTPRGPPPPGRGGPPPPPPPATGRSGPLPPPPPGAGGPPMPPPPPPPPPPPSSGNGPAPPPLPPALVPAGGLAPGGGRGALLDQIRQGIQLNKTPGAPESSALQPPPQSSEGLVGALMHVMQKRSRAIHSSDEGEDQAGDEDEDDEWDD

How the values were obtained:
Test in all cases: co-IP; HEK293 cells transfected with epitope-tagged proteins; lysis in 150 mM NaCl, 50 mM Tris pH 7.5, 1% Triton X-100 or RIPA buffer; anti-Myc antibody with Protein A/G agarose overnight at 4°C; Western blot
[1] = biological target: Sorting Nexin 9 (SNX9), mouse, epitope-tagged (mouse) (UniProt Q91VH2)
[2] = biological target: FCHSD1 (FCH domain and double SH3 domains containing protein 1), mouse, epitope-tagged full-length (mouse) (UniProt Q6PFY1)
[3] = biological target: N-WASP, epitope-tagged (UniProt O00401)
[4] = biological target: WASP, epitope-tagged (UniProt P42768)
[5] = biological target: T1, FCHSD2 (FCH domain and double SH3 domains containing protein 2), mouse, epitope-tagged full-length (mouse) (UniProt Q3USJ8)
T1 sequence: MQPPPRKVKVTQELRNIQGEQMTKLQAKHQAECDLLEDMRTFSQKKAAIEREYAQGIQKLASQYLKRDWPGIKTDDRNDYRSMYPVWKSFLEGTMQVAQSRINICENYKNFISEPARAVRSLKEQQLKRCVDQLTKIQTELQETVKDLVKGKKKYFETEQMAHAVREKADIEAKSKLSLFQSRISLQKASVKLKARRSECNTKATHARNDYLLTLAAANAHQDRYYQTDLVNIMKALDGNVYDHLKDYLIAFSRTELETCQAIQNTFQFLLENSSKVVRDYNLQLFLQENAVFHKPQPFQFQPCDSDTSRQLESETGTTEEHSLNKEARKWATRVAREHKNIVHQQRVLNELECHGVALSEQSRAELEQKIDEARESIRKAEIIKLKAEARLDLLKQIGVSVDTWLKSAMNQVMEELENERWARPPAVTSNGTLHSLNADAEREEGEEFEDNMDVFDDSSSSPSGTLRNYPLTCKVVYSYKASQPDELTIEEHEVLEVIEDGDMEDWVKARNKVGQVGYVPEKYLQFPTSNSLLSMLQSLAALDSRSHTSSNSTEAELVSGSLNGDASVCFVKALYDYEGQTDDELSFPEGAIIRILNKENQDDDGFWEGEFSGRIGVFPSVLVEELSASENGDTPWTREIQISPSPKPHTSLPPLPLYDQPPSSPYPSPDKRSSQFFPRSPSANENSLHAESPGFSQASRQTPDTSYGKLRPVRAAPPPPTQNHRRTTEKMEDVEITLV

binding [1]	binding [2]	binding [3]	binding [4]	binding [5]	Binder
binds					FCHSD1-F-BAR (1–315aa) (domain or fragment, UniProt Q6PFY1 1-315) MQPPPRKVKPAQEVKLRFLEQLSILQTRQQREADLLEDIRSYSKQRAAIEREYGQALQKLAGPFLKREGQRSGEADSRTVFGAWRCLLDATVAGGQTRLQASDRYRDLAGGTGRSAKEQVLRKGTESLQQAQAEVLQSVRELSRSRKLYGQRQRVWALAQEKAADVQARLNRSDHGIFHSRTSLQKLSTKLSAQSAQYSQQLRAARNEYLLNLVATNAHLAHYYQEELPALLKVLVSELSEYLRDPLTLLGHTELEAAEMILEHARHGGKATSQVNWEQDVKLFLQGPGVFSPTPPQQFQPAGADQVCGLEWGAG
	binds				SNX9-SH3 (1–65aa) (domain or fragment, UniProt Q91VH2 1-65) MATKARVMYDFAAEPGNNELTVTEGEIITVTNPNVGGGWLEGKNNKGEQGLVPTDYVEILPNDGK
no binding		binds	binds	binds	FCHSD2 (FCH domain and double SH3 domains containing protein 2), mouse, epitope-tagged full-length (protein, UniProt Q3USJ8 1-740) MQPPPRKVKVTQELRNIQGEQMTKLQAKHQAECDLLEDMRTFSQKKAAIEREYAQGIQKLASQYLKRDWPGIKTDDRNDYRSMYPVWKSFLEGTMQVAQSRINICENYKNFISEPARAVRSLKEQQLKRCVDQLTKIQTELQETVKDLVKGKKKYFETEQMAHAVREKADIEAKSKLSLFQSRISLQKASVKLKARRSECNTKATHARNDYLLTLAAANAHQDRYYQTDLVNIMKALDGNVYDHLKDYLIAFSRTELETCQAIQNTFQFLLENSSKVVRDYNLQLFLQENAVFHKPQPFQFQPCDSDTSRQLESETGTTEEHSLNKEARKWATRVAREHKNIVHQQRVLNELECHGVALSEQSRAELEQKIDEARESIRKAEIIKLKAEARLDLLKQIGVSVDTWLKSAMNQVMEELENERWARPPAVTSNGTLHSLNADAEREEGEEFEDNMDVFDDSSSSPSGTLRNYPLTCKVVYSYKASQPDELTIEEHEVLEVIEDGDMEDWVKARNKVGQVGYVPEKYLQFPTSNSLLSMLQSLAALDSRSHTSSNSTEAELVSGSLNGDASVCFVKALYDYEGQTDDELSFPEGAIIRILNKENQDDDGFWEGEFSGRIGVFPSVLVEELSASENGDTPWTREIQISPSPKPHTSLPPLPLYDQPPSSPYPSPDKRSSQFFPRSPSANENSLHAESPGFSQASRQTPDTSYGKLRPVRAAPPPPTQNHRRTTEKMEDVEITLV
